The test can be described thus: qHTS Assay to Find Inhibitors of Chronic Active B-Cell Receptor Signaling. Conditions: ABC-DLBCL IkBa-CBG/CBR reporter, luminescence ratio (green luciferase fused to IkBa over red control in TMD8 lymphoma cells), 4 h. Put shortly:
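Cell line TMD8 (human ABC DLBCL), stably expressing tet-inducible CBG68-IkBa fusion and CBR; IMDM/0.5% FBS; cpd up to 46 uM; dox induction, 4 h, 37C/5% CO2; dual luminescence; green/red ratio; MG132 control.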

[1] abbreviates: measured here: CBR red luminescence, cell number.
Where [2] appears, read: measured here: IkBa-CBG green luminescence.

SMILES strings stand for the structures. The list shows a part of the results. Shown are side measurements of this screen, not its main read-out; they come without a call. Most of these compounds were active or inconclusive in the main read-out, so they are no random draw. Words in brackets tell the shape of the fitted curve; partial curves, single points and poor fits give uncertain potencies.

What is called AC50 is the midpoint of the concentration-response curve, whichever way the signal moves. As for `Cc1ccc(C(=O)NC(NCc2ccccc2)C(Cl)(Cl)Cl)cc1` (centres undefined), the half-maximal activity concentration (AC50) under setting [1] is 7.31 µM [rising, partial curve, poor fit]. On the same count and under the same terms, then `CCCCOc1ccc(S(=O)(=O)N2CCN(c3ccc(N4CCN(CC)CC4)nn3)CC2)cc1`, with 18.4 µM [rising, partial curve, poor fit]; and `Cc1cc(/C(N)=N/OC(=O)c2ccccc2Cl)no1`, with 35.5 µM [falling, single point]. As to `CSc1cccc(NC(=S)N(Cc2ccc(C)cc2)Cc2cccnc2)c1`, the concentration at half-maximal activity (AC50) under setting [1] was 11.2 µM [rising, partial curve, poor fit]. For the molecule `COc1cc(OC)cc(C(=O)NC(C(=O)NNC(=O)c2ccc(C)cc2)C(C)C)c1` (centres undefined), under setting [1], the concentration at half-maximal activity (AC50) was 23.1 µM [rising, single point]. On to `Cc1ccc(S(=O)(=O)N(C)CCCC(=O)NCc2ccc3c(c2)OCO3)cc1`, for which the half-maximal activity concentration (AC50) under setting [1] is 16.4 µM [falling, partial curve, poor fit]. For `C#Cc1ccc([C@H]2C=C(C(=O)O)O[C@@H](OCc3ccc(CO)cc3)C2)cc1`, the AC50 under setting [1] was 2.51 µM [rising, partial curve, poor fit].

For `Cc1cc(N)nc2nc(C(F)(F)F)nn12`, the concentration at half-maximal activity (AC50) under setting [1] was 1.58 µM [falling, full curve, poor fit]. Regarding `Cc1nn2c(-c3ccc(Cl)cc3)ccnc2c1-c1ccccc1`, the AC50 under setting [1] is 6.51 µM [falling, single point]. In the case of `Cc1ccccc1C(=O)Nc1ccc(Br)c(C)n1`, under setting [1], the AC50 was 9.2 µM [falling, partial curve].

Take `CCN(CC)S(=O)(=O)c1ccc2c(c1)N(CC(=O)NCCCN1CCN(c3ccc(OC)cc3)CC1)C(=O)CO2`: the AC50 under setting [1] is 35.5 µM [rising, single point]. On the same count and under the same terms, then `Oc1oc(-c2ccccc2)nc1C=Nc1cccc2ccccc12`, with 29.1 µM [falling, single point]; and `CCCCCn1c(=O)[nH]c2cc(C(=O)NCCN(CC)CC)ccc2c1=O`, with 35.5 µM [falling, single point]. As to `O=C(c1ccco1)N1CCN(c2nc(C3CC3)nc3sc4c(c23)CCCC4)CC1`, the AC50 was 15.8 µM [falling, partial curve, poor fit] under setting [1] and 17.8 µM [rising, partial curve, poor fit] under setting [2]. As to `O=C(CSc1nc2ccccc2s1)Nc1cc(S(=O)(=O)N2CCOCC2)ccc1Cl`, the AC50 under setting [1] was 0.92 µM [rising, full curve, poor fit]. For `O=C1N/C(=N\N=C\c2cccs2)SC1Cc1ccc(Cl)c(Cl)c1` (centres undefined), under setting [1], the AC50 is 4.47 µM [falling, partial curve]. On the same count and under the same terms, then `COc1ccc(N=c2oc3c(OC)cccc3cc2C(=O)NCc2ccco2)c(OC)c1`, with 7.08 µM [falling, full curve]; and `Cc1ccc(C(=O)N[C@H](C(=O)Nc2ccc(F)cc2)C(C)C)cc1`, with 10 µM [falling, partial curve]. On the same count and under the same terms, then `CC(C)CCNC(=O)NC(=O)COc1ccccc1C#N`, with 29.1 µM [falling, single point]; and `CCn1cnc2c(Nc3cc(F)cc(F)c3)nc(C#N)nc21`, with 4.11 µM [rising, full curve, poor fit]; and `CSc1nc2ccccc2s1`, with 6.51 µM [rising, single point]. Turning to `Cc1ccc(NC(C#N)c2ccccc2OCc2ccccc2)cc1` (centres undefined), under setting [2], the AC50 was 25.1 µM [falling, single point].

As for `CCOC(=O)N1CCN(C(=O)c2c(O)c3cccc4c3n(c2=O)CC4)CC1`, under setting [1], the AC50 was 1.84 µM [falling, partial curve, poor fit]. Still for that read-out and setting: then `Cc1ccc(NC(=O)Cc2ccccc2)c(C)c1`, with 11.2 µM [rising, partial curve, poor fit]. In the case of `CS(=O)(=O)NCCCNc1ccc(Cl)cc1[N+](=O)[O-]`, the half-maximal activity concentration (AC50) under setting [1] is 3.26 µM [rising, full curve, poor fit]. Still for that read-out and setting: then `O=C(O)c1ccc(-c2ccccn2)s1`, with 11.2 µM [falling, partial curve]. As to `N/C(=N\OC(=O)c1ccccc1Cl)c1cccnc1`, the concentration at half-maximal activity (AC50) under setting [1] was 1.46 µM [rising, partial curve, poor fit]. Same read-out and setting: then `O=C(O)c1cccc2c(/C=N/Nc3ccccn3)c[nH]c12`, with 1 µM [falling, full curve]. Turning to `Cc1noc(C)c1COc1cccc(C(=O)OCC(=O)N2CC(=O)Nc3ccccc32)c1`, the AC50 reads like this: under setting [1], 31.6 µM [rising, single point]; under setting [2], 12.6 µM [falling, partial curve]. For the molecule `COC(=O)C1OC(OC2CC[C@]3(C)C(CC[C@@]4(C)[C@@H]3CC=C3[C@@H]5CC(C)(C)CC[C@]5(C(=O)OC5OC(CO)C(O)C(O)C5O)CC[C@]34C)C2(C)C)C(O)C(O)C1O[C@H]1OCC(O)C(O)C1O` (some centres undefined), the AC50 under setting [1] was 29.1 µM [falling, single point]. Same read-out and setting: then `CCCCCn1c(=O)[nH]c2cc(C(=O)N3CCN(CC)CC3)ccc2c1=O`, with 20.6 µM [rising, partial curve, poor fit]. On to `Oc1ccc(N=Nc2ccc(Br)cc2)c(O)c1`, for which the AC50 by setting is: under setting [1], 0.562 µM [rising, partial curve, poor fit]; under setting [2], 35.5 µM [falling, single point].

In the case of `Cc1[nH]c2ccccc2c1N=Nc1ccccc1F`, the half-maximal activity concentration (AC50) under setting [1] was 0.158 µM [rising, full curve, poor fit]. On the same count and under the same terms, then `CC(=O)Nc1ccc(NC(=O)C(C)OC(=O)c2c(C)nn(-c3ccccc3)c2Cl)cc1` (centres undefined), with 0.116 µM [rising, full curve, poor fit]; and `CCC/C(=N\NC(=O)Cc1csc(N2CCOCC2)n1)c1ccccc1`, with 5.62 µM [falling, partial curve, poor fit]; and `CSc1ccc2c(c1)N(CCC1CCCCN1C)c1ccccc1S2` (centres undefined), with 2.06 µM [falling, partial curve].

For the molecule `COc1ccc(-n2nc(C#N)c(Cl)cc2=O)cc1`, the AC50 was 7.08 µM [falling, partial curve] under setting [1] and 7.08 µM [rising, partial curve, poor fit] under setting [2]. In the case of `O=C(CCCN1C(=O)/C(=C/c2ccccc2Cl)SC1=S)NNC(=O)c1ccc(Cl)cc1`, the AC50 under setting [1] is 0.891 µM [falling, full curve, poor fit]. On the same count and under the same terms, then `Cc1ccc(/C=C/C(=O)NCc2cccs2)cc1`, with 18.4 µM [falling, partial curve]. Regarding `Nc1nc(SCc2nc(-c3ccccc3)no2)[nH]c(=O)c1-c1ccccc1`, the half-maximal activity concentration (AC50) was 0.206 µM [rising, full curve] under setting [1] and 16.4 µM [falling, partial curve] under setting [2].

As to `COCC(C)n1c(C)cc(C(=O)CSc2ncccn2)c1C` (centres undefined), under setting [1], the AC50 is 35.5 µM [rising, partial curve, poor fit].

For `COc1cc(/C=N/n2nnnc2N)cc(OC)c1OC`, the AC50 under setting [1] is 35.5 µM [falling, single point]. `O=C1C(=O)N(C/C=C/c2ccccc2)c2ccccc21`: the half-maximal activity concentration (AC50) is, setting by setting: under setting [1], 15.8 µM [rising, partial curve]; under setting [2], 22.4 µM [falling, single point].

With `Oc1ccccc1CN1CCN(C(O)(c2ccccc2)c2ccccc2)CC1`, under setting [1], the AC50 is 22.4 µM [falling, single point]. On to `CCOC(=O)c1cccc(NC(=O)CSc2nnc(C3CCCCC3)n2CC)c1`, for which the concentration at half-maximal activity (AC50) under setting [1] was 28.2 µM [falling, single point]. `COc1ccc(C)c(Cn2c(-c3nonc3N)nc3ccccc32)c1`: the concentration at half-maximal activity (AC50) is, setting by setting: under setting [1], 7.08 µM [rising, partial curve]; under setting [2], 10 µM [falling, partial curve, poor fit].

In the case of `Cc1cc(C)nc(NC(=O)c2ccc3c(c2)OCO3)c1`, the concentration at half-maximal activity (AC50) under setting [1] was 11.2 µM [falling, partial curve].

For `Cc1ccc(N(C)S(=O)(=O)c2c[nH]c3ccc([N+](=O)[O-])cc23)cc1`, the AC50 under setting [1] is 11.2 µM [falling, single point].

In the case of `COc1ccccc1NC(=O)Nc1ccc(Cl)c(S(=O)(=O)Nc2ccccc2OC)c1`, the half-maximal activity concentration (AC50) under setting [1] was 23.1 µM [falling, partial curve, poor fit]. With `CC(=O)c1c(C)[nH]c(C(=O)COC(=O)c2ccc(Cl)nc2)c1C`, the concentration at half-maximal activity (AC50) under setting [1] was 0.651 µM [rising, full curve, poor fit]. On the same count and under the same terms, then `C/C(=N/N=C(/C)c1cccs1)c1cccs1`, with 35.5 µM [rising, single point]. Take `COc1ccc(C(=O)NCCn2ccc3ccccc32)c(OC)c1`: the AC50 under setting [2] was 15.8 µM [rising, partial curve, poor fit].

Consider `CCOC(=O)C1CCN(C2CC(=O)N(c3cccc(Cl)c3)C2=O)CC1` (centres undefined), for which the AC50 under setting [1] is 13 µM [falling, partial curve, poor fit]. On the same count and under the same terms, then `CCOc1ccccc1N1CCN(Cc2ccco2)CC1`, with 0.58 µM [falling, full curve]. The same measure, in the same setting: then `O=C(CCNc1n[nH]c(=O)[nH]c1=O)N/N=C/c1ccccc1Br`, with 0.447 µM [rising, full curve, poor fit].

For the molecule `CCOC(=O)C1CCCN(C(=O)C(C)Oc2ccc(Cl)cc2Cl)C1` (centres undefined), the AC50 under setting [1] was 0.164 µM [falling, full curve, poor fit]. On to `c1ccc(NCc2nc3ccccc3n2CCOc2ccccc2)cc1`, for which, under setting [1], the AC50 was 4.11 µM [falling, partial curve]. As to `Cn1c(SCc2nnc3n2CCCCC3)nc2ccccc21`, under setting [1], the AC50 was 1.3 µM [falling, partial curve, poor fit]. Same read-out and setting: then `c1ccc2c(c1)Nc1nccnc1S2`, with 10.3 µM [falling, partial curve].

With `Oc1ccc(-c2[nH]ncc2-c2ccc(Br)cc2)c(O)c1`, the concentration at half-maximal activity (AC50) under setting [1] was 35.5 µM [rising, single point].

Consider `Cc1c(/C=C/C(=O)c2ccc(Cl)s2)cnn1C`, for which, under setting [1], the AC50 is 29.1 µM [falling, single point]. Same read-out and setting: then `Cc1nn(-c2ccccc2)c(Cl)c1C(=O)NC1CCCCC1`, with 5.01 µM [rising, single point].

The record behind these values is PubChem BioAssay AID493014 (National Center for Advancing Translational Sciences (NCATS), 2011).
